These are yes or no findings as the source states them, for the method shown. Binding seen in cells or lysates may run through a third protein. Binding can be weak; no strength is given.
Target: GST-Rab12(K71R) (mouse)
Experiment: pull-down; 20 μg GST, GST-Rab12 or GST-Rab12(K71R) on glutathione agarose beads, 18 h at 4 °C with 500 μg lysate of RBL cells transfected with T7-tagged RILP, RILP mutants, RILP-L1 or RILP-L2, 0.5 mM GTPγS; blot anti-T7 (Fig. 2b,c; Supplementary figure S3); only the target purified

binding: binds
B1: T7-RILP (protein, UniProt Q5ND29 1-369)
chain: MEPRRAAPRLPSQASSSVGAGSAAELVYHLAGALGTELQGLARRFGPDAAAGLVPLVVRALELLEKAAVGPAPDSLQVSAQQAEVELRRLREENQRLRQELGSGPQEERALLRQLKEVTDRQRDELRAHNRDLQRRSQETEALQEQLQRLLLINSELRHKLAAVQTQLRAAQDRERERQIAQDGSSQLAKEQSLEPDAATSDDPVDTQKQPGNLPEAVQCGFSREELKQILQERNELKANVFLLKEELAYFQRELLTDHRVPGLLLEAMKVAVKKQRRKIKAKMLGTPEEAESSEDEDGSWLLLSNDKEDVPLVPESRIQNFFGLWYRGETEAPEAETSNPASSSLQKGEETPQQPHLQPVNSPPAPNS

— paper PMC8119438
